Earlier results as cited in US8093286B2, “Methods for treatment with bucindolol based on genetic targeting” (The Regents of the University of Colorado, a body corporate, priority 2004, dated 2012).
Some results were stated once for a whole list of compounds, not compound by compound. Some ranges recur; such a range may be that of the whole group of compounds.

Test system: heart failure patients
Conditions: CIBIS-II (bisoprolol), MERIT-HF (metoprolol), COPERNICUS (carvedilol); cited from earlier work

SMILES	reductions in mortality vs placebo
CC(C)NCC(O)COc1ccc(COCCOC(C)C)cc1 (centres unmarked) [bisoprolol]	34-35%
COCCc1ccc(OCC(O)CNC(C)C)cc1 (centres unmarked) [metoprolol]	34-35%
